Data from patent US20140038203A1, “METHODS FOR DETECTING OR PREDICTING KIDNEY DISEASE” (MUSC FOUNDATION FOR RESEARCH DEVELOPMENT, priority 2012, published 2014).

Assay: RRT study: LC-MS/MS urinary proteomics, AKI after cardiac surgery, RRT vs No RRT
Parameters: species or system human
Conditions: for Mean No RRT / Mean RRT: urine; for Mean No RRT: AKI patients who did not require RRT (n=6); for Mean RRT: AKI patients who required RRT (n=6)
[1] = RRT vs No RRT, positive = elevated in RRT group
[2] = direction of urinary abundance, patients who did vs did not require RRT/dialysis
[3] = patients who did vs did not require RRT/dialysis, read with the Up or Down column
[4] = direction of differential abundance, patients who did vs did not require RRT/dialysis
[5] = patients who did vs did not require RRT/dialysis

B1: Keratin, type II cytoskeletal 5: urinary protein, Uniprot P13647 (protein, UniProt P13647 1-590, looked up)
Keratin, type II cytoskeletal …: MSRQSSVSFRSGGSRSFSTASAITPSVSRTSFTSVSRSGGGGGGGFGRVSLAGACGVGGYGSRSLYNLGGSKRISISTSGGSFRNRFGAGAGGGYGFGGGAGSGFGFGGGAGGGFGLGGGAGFGGGFGGPGFPVCPPGGIQEVTVNQSLLTPLNLQIDPSIQRVRTEEREQIKTLNNKFASFIDKVRFLEQQNKVLDTKWTLLQEQGTKTVRQNLEPLFEQYINNLRRQLDSIVGERGRLDSELRNMQDLVEDFKNKYEDEINKRTTAENEFVMLKKDVDAAYMNKVELEAKVDALMDEINFMKMFFDAELSQMQTHVSDTSVVLSMDNNRNLDLDSIIAEVKAQYEEIANRSRTEAESWYQTKYEELQQTAGRHGDDLRNTKHEISEMNRMIQRLRAEIDNVKKQCANLQNAIADAEQRGELALKDARNKLAELEEALQKAKQDMARLLREYQELMNTKLALDVEIATYRKLLEGEECRLSGEGVGPVNISVVTSSVSSGYGSGSGYGGGLGGGLGGGLGGGLAGGSSGSYYSSSSGGVGLGGGLSVGGSGFSASSGRGLGVGFGSGGGSSSSVKFVSTTSSSRKSFKS
Mean Fold Change [1]: −1.736 | Up or Down [2]: Down | Mean Fold Change [3]: 3.473 | Mean No RRT: 5.74 normalized spectral counts | Mean RRT: 2.16 normalized spectral counts

B2: Poliovirus receptor-related protein 2 (protein, UniProt Q92692 32-538, looked up)
Nectin-2: QDVRVQVLPEVRGQLGGTVELPCHLLPPVPGLYISLVTWQRPDAPANHQNVAAFHPKMGPSFPSPKPGSERLSFVSAKQSTGQDTEAELQDATLALHGLTVEDEGNYTCEFATFPKGSVRGMTWLRVIAKPKNQAEAQKVTFSQDPTTVALCISKEGRPPARISWLSSLDWEAKETQVSGTLAGTVTVTSRFTLVPSGRADGVTVTCKVEHESFEEPALIPVTLSVRYPPEVSISGYDDNWYLGRTDATLSCDVRSNPEPTGYDWSTTSGTFPTSAVAQGSQLVIHAVDSLFNTTFVCTVTNAVGMGRAEQVIFVRETPNTAGAGATGGIIGGIIAAIIATAVAATGILICRQQRKEQTLQGAEEDEDLEGPPSYKPPTPKAKLEAQEMPSQLFTLGASEHSPLKTPYFDAGASCTEQEMPRYHELPTLEERSGPLHPGATSLGSPIPVPPGPPAVEDVSLDLEDEEGEEEEEYLDKINPIYDALSYSSPSDSYQGKGFVMSRAMYV
Up or Down [4]: Down | Mean Fold Change [5]: 1.234

B3: Carbonic anhydrase 3 (protein, UniProt P07451 2-260, looked up)
Carbonic anhydrase 3: AKEWGYASHNGPDHWHELFPNAKGENQSPVELHTKDIRHDPSLQPWSVSYDGGSAKTILNNGKTCRVVFDDTYDRSMLRGGPLPGPYRLRQFHLHWGSSDDHGSEHTVDGVKYAAELHLVHWNPKYNTFKEALKQRDGIAVIGIFLKIGHENGEFQIFLDALDKIKTKGKEAPFTKFDPSCLFPACRDYWTYQGSFTTPPCEECIVWLLLKEPMTVSSDQMAKLRSLLSSAENEPPVPLVSNWRPPQPINNRVVRASFK
Up or Down [2]: Up

B4: Cystatin-M (protein, UniProt Q15828 29-149, looked up)
Cystatin-M: RPQERMVGELRDLSPDDPQVQKAAQAAVASYNMGSNSIYYFRDTHIIKAQSQLVAGIKYFLTMEMGSTDCRKTRVTGDHVDLTTCPLAAGAQQEKLRCDFEVLVVPWQNSSQLLKHNCVQM
Up or Down [4]: Down | Mean Fold Change [5]: 1.159

B5: Na(+)/H(+) exchange regulatory cofactor NHE-RF1 (protein, UniProt O14745 2-358, looked up)
Na(+)/H(+) exchange …: SADAAAGAPLPRLCCLEKGPNGYGFHLHGEKGKLGQYIRLVEPGSPAEKAGLLAGDRLVEVNGENVEKETHQQVVSRIRAALNAVRLLVVDPETDEQLQKLGVQVREELLRAQEAPGQAEPPAAAEVQGAGNENEPREADKSHPEQRELRPRLCTMKKGPSGYGFNLHSDKSKPGQFIRSVDPDSPAEASGLRAQDRIVEVNGVCMEGKQHGDVVSAIRAGGDETKLLVVDRETDEFFKKCRVIPSQEHLNGPLPVPFTNGEIQKENSREALAEAALESPRPALVRSASSDTSEELNSQDSPPKQDSTAPSSTSSSDPILDFNISLAMAKERAHQKRSSKRAPQMDWSKKNELFSNL
Up or Down [4]: Down | Mean Fold Change [5]: 2.56

B6: Extracellular superoxide dismutase [Cu—Zn] (protein, UniProt P08294 19-240, looked up)
Extracellular superoxide …: WTGEDSAEPNSDSAEWIRDMYAKVTEIWQEVMQRRDDDGALHAACQVQPSATLDAAQPRVTGVVLFRQLAPRAKLDAFFALEGFPTEPNSSSRAIHVHQFGDLSQGCESTGPHYNPLAVPHPQHPGDFGNFAVRDGSLWRYRAGLAASLAGPHSIVGRAVVVHAGEDDLGRGGNQASVENGNAGRRLACCVVGVCGPGLWERQAREHSERKKRRRESECKAA
Up or Down [4]: Down | Mean Fold Change [5]: 21.6

B7: Insulin-like growth factor-binding protein 1 (protein, UniProt P08833 26-259, looked up)
Insulin-like growth …: APWQCAPCSAEKLALCPPVSASCSEVTRSAGCGCCPMCALPLGAACGVATARCARGLSCRALPGEQQPLHALTRGQGACVQESDASAPHAAEAGSPESPESTEITEEELLDNFHLMAPSEEDHSILWDAISTYDGSKALHVTNIKKWKEPCRIELYRVVESLAKAQETSGEEISKFYLPNCNKNGFYHSRQCETSMDGEAGLCWCVYPWNGKRIPGSPEIRGDPNCQIYFNVQN
Up or Down [2]: Up

B8: Keratin, type II cytoskeletal 1: urinary protein, Uniprot P04264 (protein, UniProt P04264 2-644, looked up)
Keratin, type II cytoskeletal …: SRQFSSRSGYRSGGGFSSGSAGIINYQRRTTSSSTRRSGGGGGRFSSCGGGGGSFGAGGGFGSRSLVNLGGSKSISISVARGGGRGSGFGGGYGGGGFGGGGFGGGGFGGGGIGGGGFGGFGSGGGGFGGGGFGGGGYGGGYGPVCPPGGIQEVTINQSLLQPLNVEIDPEIQKVKSREREQIKSLNNQFASFIDKVRFLEQQNQVLQTKWELLQQVDTSTRTHNLEPYFESFINNLRRRVDQLKSDQSRLDSELKNMQDMVEDYRNKYEDEINKRTNAENEFVTIKKDVDGAYMTKVDLQAKLDNLQQEIDFLTALYQAELSQMQTQISETNVILSMDNNRSLDLDSIIAEVKAQYEDIAQKSKAEAESLYQSKYEELQITAGRHGDSVRNSKIEISELNRVIQRLRSEIDNVKKQISNLQQSISDAEQRGENALKDAKNKLNDLEDALQQAKEDLARLLRDYQELMNTKLALDLEIATYRTLLEGEESRMSGECAPNVSVSVSTSHTTISGGGSRGGGGGGYGSGGSSYGSGGGSYGSGGGGGGGRGSYGSGGSSYGSGGGSYGSGGGGGGHGSYGSGSSSGGYRGGSGGGGGGSSGGRGSGGGSSGGSIGGRGSSSGGVKSSGGSSSVKFVSTTYSGVTR
Mean Fold Change [1]: −1.902 | Up or Down [2]: Down | Mean Fold Change [3]: 1.902 | Mean No RRT: 35.85 normalized spectral counts | Mean RRT: 18.85 normalized spectral counts

B9: Lymphocyte antigen 6D (protein, UniProt Q14210 21-98, looked up)
Lymphocyte antigen 6D: LRCHVCTSSSNCKHSVVCPASSRFCKTTNTVEPLRGNLVKKDCAESCTPSYTLQGQVSSGTSSTQCCQEDLCNEKLHN
Up or Down [4]: Down | Mean Fold Change [5]: 1.289

B10: Prostaglandin-H2 D-isomerase (protein, UniProt P41222 23-190, looked up)
Prostaglandin-H2 D-isomerase: APEAQVSVQPNFQQDKFLGRWFSAGLASNSSWLREKKAALSMCKSVVAPATDGGLNLTSTFLRKNQCETRTMLLQPAGSLGSYSYRSPHWGSTYSVSVVETDYDQYALLYSQGSKGPGEDFRMATLYSRTQTPRAELKEKFTAFCKAQGFTEDTIVFLPQTDKCMTEQ
Up or Down [4]: Down | Mean Fold Change [5]: 1.185

B11: Glutamyl aminopeptidase (protein, UniProt Q07075 1-957, looked up)
Glutamyl aminopeptidase: MNFAEREGSKRYCIQTKHVAILCAVVVGVGLIVGLAVGLTRSCDSSGDGGPGTAPAPSHLPSSTASPSGPPAQDQDICPASEDESGQWKNFRLPDFVNPVHYDLHVKPLLEEDTYTGTVSISINLSAPTRYLWLHLRETRITRLPELKRPSGDQVQVRRCFEYKKQEYVVVEAEEELTPSSGDGLYLLTMEFAGWLNGSLVGFYRTTYTENGQVKSIVATDHEPTDARKSFPCFDEPNKKATYTISITHPKEYGALSNMPVAKEESVDDKWTRTTFEKSVPMSTYLVCFAVHQFDSVKRISNSGKPLTIYVQPEQKHTAEYAANITKSVFDYFEEYFAMNYSLPKLDKIAIPDFGTGAMENWGLITYRETNLLYDPKESASSNQQRVATVVAHELVHQWFGNIVTMDWWEDLWLNEGFASFFEFLGVNHAETDWQMRDQMLLEDVLPVQEDDSLMSSHPIIVTVTTPDEITSVFDGISYSKGSSILRMLEDWIKPENFQKGCQMYLEKYQFKNAKTSDFWAALEEASRLPVKEVMDTWTRQMGYPVLNVNGVKNITQKRFLLDPRANPSQPPSDLGYTWNIPVKWTEDNITSSVLFNRSEKEGITLNSSNPSGNAFLKINPDHIGFYRVNYEVATWDSIATALSLNHKTFSSADRASLIDDAFALARAQLLDYKVALNLTKYLKREENFLPWQRVISAVTYIISMFEDDKELYPMIEEYFQGQVKPIADSLGWNDAGDHVTKLLRSSVLGFACKMGDREALNNASSLFEQWLNGTVSLPVNLRLLVYRYGMQNSGNEISWNYTLEQYQKTSLAQEKEKLLYGLASVKNVTLLSRYLDLLKDTNLIKTQDVFTVIRYISYNSYGKNMAWNWIQLNWDYLVNRYTLNNRNLGRIVTIAEPFNTELQLWQMESFFAKYPQAGAGEKPREQVLETVKNNIEWLKQHRNTIREWFFNLLESG
Up or Down [4]: Down

B12: Apolipoprotein A-IV: urinary protein, Uniprot P06727 (protein, UniProt P06727 21-396, looked up)
Apolipoprotein A-IV: EVSADQVATVMWDYFSQLSNNAKEAVEHLQKSELTQQLNALFQDKLGEVNTYAGDLQKKLVPFATELHERLAKDSEKLKEEIGKELEELRARLLPHANEVSQKIGDNLRELQQRLEPYADQLRTQVSTQAEQLRRQLTPYAQRMERVLRENADSLQASLRPHADELKAKIDQNVEELKGRLTPYADEFKVKIDQTVEELRRSLAPYAQDTQEKLNHQLEGLTFQMKKNAEELKARISASAEELRQRLAPLAEDVRGNLRGNTEGLQKSLAELGGHLDQQVEEFRRRVEPYGENFNKALVQQMEQLRQKLGPHAGDVEGHLSFLEKDLRDKVNSFFSTFKEKESQDKTLSLPELEQQQEQQQEQQQEQVQMLAPLES
Mean Fold Change [1]: 9.086 | Up or Down [2]: Up | Mean Fold Change [3]: 54.52 | Mean No RRT: 2.36 normalized spectral counts | Mean RRT: 21.45 normalized spectral counts
